Measurements as given in PubChem BioAssay AID504444 (National Center for Advancing Translational Sciences (NCATS), 2011).
Hit rate of the full screen: of about 360,000 compounds, about 7,500 (2.1%) were called active. This list was built around the results that the source calls inconclusive (neither active nor inactive); the mix of calls is not that of the screen. The call rests on the fitted dose curve; in most records, active means well fitted inhibition curve with a large enough effect; inconclusive means small, poorly fitted or top-dose-only effect, or effect the other way; inactive means flat fitted curve, though single readings scatter. Where the call is inconclusive, the potency comes from a doubtful curve fit.

assay: Nrf2 qHTS screen for inhibitors; settings: A549 ARE-Fluc reporter, luciferase luminescence, 18-24 h; series mostly up to 46 µM; further: nearly all actives have a fitted effect of over 60% in size
Method in brief: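 Reporter: ARE-Fluc in A549. Exposure: 18-24 h, 37 °C, 5% CO2, 5% FBS OPTI-MEM. Readouts: fluorescent cytotoxicity (CellTiter-Fluor), then luminescent Nrf2 signal after BugLite.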
Potency means the concentration at half of the fitted maximal effect.

**Q.** With Cc1coc2cc3oc(=O)c(CC(=O)NCc4ccccc4)c(C)c3cc12 as the molecule, how does the Potency read?
**A.** inactive

**Q.** For Oc1ccccc1N=Nc1nc(-c2ccccc2)c(-c2ccccc2)[nH]1, which Potency is on record?
**A.** inconclusive: 29.1 µM [falling, single point]

**Q.** For CN(C)c1ccc(C(O)Cc2nc3ccccc3n2C)cc1 (configuration not stated), which Potency is on record?
**A.** inconclusive: 10.3 µM [activator, partial curve]

**Q.** Which Potency does the source give for Cc1nc(-c2coc3cc(OCC(=O)O)ccc3c2=O)cs1 here?
**A.** inconclusive: 13 µM [falling, partial curve, poor fit]

**Q.** Which Potency does the source give for CCCc1nn2c(C)c(-c3ccccc3)nc2s1 here?
**A.** inconclusive: 0.291 µM [activator, full curve, poor fit]

**Q.** Which Potency does the source give for O=C(CSc1nncs1)Nc1ccc2c(c1)OCCO2 here?
**A.** inconclusive: 16.4 µM [activator, partial curve, poor fit]

**Q.** For O=C1C2CC=CCC2C(=O)N1Cc1ccccc1 (configuration not stated), which Potency is on record?
**A.** inactive

**Q.** For COC(=O)CCN(C(=O)c1c(C)oc2ncnc(N3CCOCC3)c12)c1ccccc1, which Potency is on record?
**A.** inconclusive: 18.4 µM [activator, single point]

**Q.** Which Potency does the source give for CNc1nc2cc([N+](=O)[O-])c([N+](=O)[O-])cc2nc1NC here?
**A.** inconclusive: 29.1 µM [falling, single point]

**Q.** With Cc1cccc(N2CCN(C(=O)C3CCN(S(=O)(=O)c4ccc5c(c4)oc(=O)n5C)CC3)CC2)c1C as the molecule, how does the Potency read?
**A.** inconclusive: 18.4 µM [falling, single point]

**Q.** With Cc1ccc(S(=O)(=O)N2CCC(=O)N(CCOCc3ccc(C(F)(F)F)cc3)CC2)cc1 as the molecule, how does the Potency read?
**A.** inconclusive: 8.2 µM [falling, partial curve, poor fit]

**Q.** Which Potency does the source give for O=C(c1ccoc1)N1CCC(CO)(CCc2ccccc2)CC1 here?
**A.** inconclusive: 18.4 µM [activator, single point]

**Q.** With CC(=O)c1ccc(NC(=O)COC(=O)c2c3c(nc4ccccc24)/C(=C\c2cccs2)CCC3)cc1 as the molecule, how does the Potency read?
**A.** inconclusive: 32.6 µM [falling, single point]

**Q.** Which Potency does the source give for CCOC(=O)c1ccc(CSC(=N)N)o1 here?
**A.** inconclusive: 29.1 µM [falling, single point]

**Q.** Which Potency does the source give for COc1ccc(C2c3cc(OC)c(OC)cc3CCN2C(=O)c2ccccc2)cc1OC (configuration not stated) here?
**A.** inactive

**Q.** Which Potency does the source give for O=C(O)CCCCCCCCCCCNC(=O)NC12CC3CC(CC(C3)C1)C2 here?
**A.** inactive

**Q.** Which Potency does the source give for O=C(Nc1ccc(Cl)cc1)N1CCOC12CCC1(CC2)OCCO1 here?
**A.** inconclusive: 29.1 µM [activator, single point]

**Q.** With Oc1ccc(Cl)cc1C1=NNC(c2cc(Br)cc3c2OCOC3)C1 (configuration not stated) as the molecule, how does the Potency read?
**A.** inconclusive: 29.1 µM [activator, single point]

**Q.** With O=C(O)c1cc(=O)c2cccc(O)c2[nH]1 as the molecule, how does the Potency read?
**A.** inactive

**Q.** For Cc1ccc(C)c(CN2C(=O)c3ccccc3S(=O)c3ccc(C(=O)N(C)Cc4ccccc4)cc32)c1 (configuration not stated), which Potency is on record?
**A.** active: 20.6 µM

**Q.** Which Potency does the source give for C(=N\Nc1nc2ccccc2s1)/c1ccco1 here?
**A.** inconclusive: 11.6 µM [activator, partial curve]

**Q.** Which Potency does the source give for Cc1ccc(-n2ncc(C(=O)N3CCC(c4ccccc4)C3)c2C2CCN(C(=O)OC(C)(C)C)CC2)cc1 (configuration not stated) here?
**A.** inconclusive: 29.1 µM [falling, single point]

**Q.** With COc1ccc(CNC(=S)Nc2ccc(Br)cc2)cc1 as the molecule, how does the Potency read?
**A.** inconclusive: 23.1 µM [falling, single point]

**Q.** For Cc1ccc(C(=O)Nn2c(N)c(S(=O)(=O)c3ccc(C)cc3)c3nc4ccccc4nc32)cc1, which Potency is on record?
**A.** inconclusive: 32.6 µM [falling, single point]

**Q.** With CCN(c1cc(C)cc(C)c1)S(=O)(=O)c1nnc(NC(=O)c2cccc(F)c2)s1 as the molecule, how does the Potency read?
**A.** inconclusive: 20.6 µM [falling, single point]

**Q.** With CCOc1ccccc1N1CC(c2nc3ccccc3n2CCOc2ccc(C(C)(C)C)cc2)CC1=O (configuration not stated) as the molecule, how does the Potency read?
**A.** inconclusive: 29.1 µM [falling, single point]

**Q.** For CC(=O)c1cccc(NC(=O)CNC(=O)c2sc3ccccc3c2Cl)c1, which Potency is on record?
**A.** inconclusive: 16.4 µM [falling, single point]

**Q.** With O=C(Nc1nnc(C(F)(F)F)s1)C1COc2ccccc2O1 (configuration not stated) as the molecule, how does the Potency read?
**A.** inconclusive: 29.1 µM [falling, single point]

**Q.** With Cc1ccc(Cn2c(SCC(=O)N3CC(=O)Nc4ccccc43)nc3ccccc3c2=O)cc1 as the molecule, how does the Potency read?
**A.** inconclusive: 29.1 µM [falling, single point]

**Q.** For Cn1c(SCC(=O)c2ccc3c(c2)Cc2ccccc2-3)nnc1-c1cccc(N)c1, which Potency is on record?
**A.** inactive

**Q.** For Cc1cc(C(=O)CS(=O)(=O)c2ccc(Cl)cc2)cc(C)c1O, which Potency is on record?
**A.** inactive

**Q.** With Cc1c(Cl)cccc1NC(=O)CNC(=O)Cc1n[nH]c(=O)c2ccccc12 as the molecule, how does the Potency read?
**A.** inactive

**Q.** Which Potency does the source give for CCOC(=O)c1[nH]c(=O)[nH]c1CN(Cc1ccco1)Cc1[nH]c(=O)[nH]c1C(=O)OCC here?
**A.** inconclusive: 0.058 µM [falling, full curve, poor fit]

**Q.** For C=C1c2ccccc2NC(=O)N1c1ccc(OC)cc1, which Potency is on record?
**A.** inconclusive: 20.6 µM [activator, partial curve]

**Q.** For CN(CC(O)CON=C1c2ccccc2-c2ccccc21)S(=O)(=O)c1ccc(Br)cc1 (configuration not stated), which Potency is on record?
**A.** active: 20.6 µM

**Q.** Which Potency does the source give for COC(=O)c1c(NC(=O)Cc2ccc(OC)c(S(=O)(=O)N3CCOCC3)c2)sc(C)c1C here?
**A.** inconclusive: 11.6 µM [falling, single point]

**Q.** For O=[N+]([O-])c1ccc(Nc2c3ccccc3nc3ccccc23)cc1, which Potency is on record?
**A.** inconclusive: 32.6 µM [falling, single point]

**Q.** Which Potency does the source give for COc1ccc(OC)c(N/C(C)=C/C(=O)c2ccccc2)c1 here?
**A.** inconclusive: 1.84 µM [activator, partial curve]

**Q.** For CCOC(=O)c1c2c(n(Cc3ccccc3)c1C)C(=O)C(=O)c1ccccc1-2, which Potency is on record?
**A.** inconclusive: 29.1 µM [falling, single point]

**Q.** With Cc1ccnc(NC(=O)c2ccc(NC(=O)CC3SC(N4CCCC4)=NC3=O)cc2)c1 (configuration not stated) as the molecule, how does the Potency read?
**A.** inconclusive: 2.91 µM [activator, single point]

**Q.** With CC1CCCN(C(C(=O)NC2CCCCC2)c2cc3c(cc2[N+](=O)[O-])OCO3)C1 (configuration not stated) as the molecule, how does the Potency read?
**A.** inconclusive: 29.1 µM [falling, single point]

**Q.** Which Potency does the source give for Cc1cccc(C(=O)NC2CCN(C(=O)NCc3ccccc3)CC2)c1 here?
**A.** inactive
